From paper PMC4973239, “Crystal structure of the human Tip41 orthologue, TIPRL, reveals a novel fold and a binding site for the PP2Ac C-terminus” (Scientific Reports, 2016)
Results are given in words; binding and its absence hold for the method and conditions named. In cells and extracts the contact can be indirect. A result given as binding can be weak or reduced; the word gives no strength. Sequences can lack the tags named with a protein.

Amino acid sequences for entries named in this document (tags omitted). A change or cut given only in a name is not applied to a line headed by its entry.
UniProt P67775: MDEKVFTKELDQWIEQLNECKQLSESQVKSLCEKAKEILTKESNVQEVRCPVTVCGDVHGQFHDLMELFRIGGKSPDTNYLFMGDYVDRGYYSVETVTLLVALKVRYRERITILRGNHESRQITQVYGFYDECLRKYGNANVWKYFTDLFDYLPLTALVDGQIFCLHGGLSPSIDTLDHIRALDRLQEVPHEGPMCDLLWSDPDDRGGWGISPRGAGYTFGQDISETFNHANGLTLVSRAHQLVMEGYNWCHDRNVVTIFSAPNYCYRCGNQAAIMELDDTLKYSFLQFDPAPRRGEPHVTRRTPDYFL

Tests used:
Test in all cases: pull-down; GST pull-down; GST-PP2Ac and His-TIPRL co-expressed in E. coli BL21(DE3); cleared lysates on glutathione-sepharose beads, 1 h at 4 °C, PBS pH 7.4 with 0.5% IGEPAL CA-630, 1 mM DTT; Coomassie-stained SDS-PAGE
[1] = target: GST-tagged PP2Ac (residues 210–309) ΔTPDYFL (UniProt P67775)
[2] = target: GST-tagged PP2Ac (residues 210–309) Y307E (UniProt P67775)
[3] = target: GST-tagged, full length PP2Ac ΔTPDYFL (UniProt P67775)
[4] = target: GST-tagged, full length PP2Ac Y307E (UniProt P67775)
[5] = target: GST-tagged PP2Ac (residues 210–309) (UniProt P67775)

Measured: binding

B1: His-tagged, full length TIPRL (protein, UniProt O75663-1 1-272)
chain: MMIHGFQSSHRDFCFGPWKLTASKTHIMKSADVEKLADELHMPSLPEMMFGDNVLRIQHGSGFGIEFNATDALRCVNNYQGMLKVACAEEWQESRTEGEHSKEVIKPYDWTYTTDYKGTLLGESLKLKVVPTTDHIDTEKLKAREQIKFFEEVLLFEDELHDHGVSSLSVKIRVMPSSFFLLLRFFLRIDGVLIRMNDTRLYHEADKTYMLREYTSRESKISSLMHVPPSLFTEPNEISQYLPIKEAVCEKLIFPERIDPNPADSQKSTQVE
binds: [1] | [2] | [3] | [4] | [5]
